# Measurements: patent US8703701B2 (Indiana University Research and Technology Corporation, priority 2009, dated 2014)
# Chains of the proteins cited; added tags and fusions are not shown. Residues count along the entry.
# UniProt P43220, 24-463: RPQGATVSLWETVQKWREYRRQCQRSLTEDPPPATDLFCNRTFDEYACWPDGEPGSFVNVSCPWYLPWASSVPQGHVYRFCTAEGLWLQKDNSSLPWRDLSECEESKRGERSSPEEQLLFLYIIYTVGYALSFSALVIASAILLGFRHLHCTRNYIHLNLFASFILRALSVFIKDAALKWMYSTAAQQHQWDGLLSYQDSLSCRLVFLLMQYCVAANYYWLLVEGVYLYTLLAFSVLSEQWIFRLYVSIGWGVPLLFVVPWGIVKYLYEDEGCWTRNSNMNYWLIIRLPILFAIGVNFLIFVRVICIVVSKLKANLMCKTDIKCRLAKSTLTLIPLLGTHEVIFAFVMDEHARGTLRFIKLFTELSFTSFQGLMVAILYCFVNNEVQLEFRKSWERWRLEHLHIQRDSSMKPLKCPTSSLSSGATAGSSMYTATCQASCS
# For at least one compound, name, drawing or mass did not settle the structure. Non-standard residues stand in square brackets, D forms with d. Residues, ends and D or L forms follow the SMILES beside them.
# Molecular target: T1, GLP-1 receptor (Homo sapiens, UniProt P43220)
# T1 construct: expressed in transfected cells; host or cells: HEK293
# Experiment: cAMP induction, firefly luciferase reporter assay, GLP-1 receptor
# Format: cell-based
# Details: read-out: EC50 (nM) at GLP-1 Receptor; Table 7B
# Method: The ability of each peptide to induce cAMP was measured in a firefly luciferase-based reporter assay.
# At the end of the incubation, 100 μL of LucLite luminescence substrate reagent (Perkin Elmer, Wellesley, Mass.) were added to each well. The plate was shaken briefly, incubated 10 min in the dark and light output was measured on MicroBeta-1450 liquid scintillation counter (Perkin-Elmer, Wellesley, Mass.).
smiles,measurement,value
CC[C@H](C)[C@H](NC(=O)[C@H](Cc1ccccc1)NC(=O)[C@H](CC(C)C)NC(=O)[C@H](CCCNC(=N)N)NC(=O)[C@@H](NC(=O)[C@H](C)NC(=O)[C@H](CCC(N)=O)NC(=O)[C@H](CCC(=O)O)NC(=O)[C@H](CC(=O)O)NC(=O)[C@H](CC(C)C)NC(=O)[C@H](Cc1ccc(O)cc1)NC(=O)[C@H](CCCCN)NC(=O)[C@H](CO)NC(=O)[C@H](Cc1ccc(O)cc1)NC(=O)[C@H](CC(=O)O)NC(=O)[C@H](CO)NC(=O)[C@@H](NC(=O)[C@H](Cc1ccccc1)NC(=O)[C@@H](NC(=O)CNC(=O)[C@H](CCC(N)=O)NC(=O)[C@@H](CO)NC(=O)[C@@H](N)Cc1c[nH]cn1)[C@@H](C)O)[C@@H](C)O)C(C)C)C(=O)N[C@@H](CS)C(=O)N[C@@H](Cc1c[nH]c2ccccc12)C(=O)N[C@@H](CC(C)C)C(=O)N[C@@H](CC(C)C)C(=O)N[C@@H](CC(=O)O)C(=O)NCC(=O)NCC(=O)N1CCC[C@H]1C(=O)N[C@@H](CO)C(=O)N[C@@H](CO)C(=O)NCC(=O)N[C@@H](C)C(=O)N1CCC[C@H]1C(=O)N1CCC[C@H]1C(=O)N1CCC[C@H]1C(=O)N[C@@H](CO)C(N)=O [compound 84] (H-H[dS]QGTFTSDYSKYLDEQAVRLFICWLLDGGPSSGAPPPS-NH2; N-terminus and C-terminus assumed),EC50,0.006 nM
